This is an account of results in paper PMC6191541, “Small-Molecule Acetylation Controls the Degradation of Benzoate and Photosynthesis in Rhodopseudomonas palustris” (mBio, 2018).

The exact form of at least one protein or probe is not confirmed. Weaker means in comparison with the reference protein, sequence or condition of that experiment. Where a protein sequence is shown, tags need not be part of it.

For this data set, the target named is T1, BadM (Rhodopseudomonas palustris) (UniProt O07465).
T1 sequence (looked up, limits assumed): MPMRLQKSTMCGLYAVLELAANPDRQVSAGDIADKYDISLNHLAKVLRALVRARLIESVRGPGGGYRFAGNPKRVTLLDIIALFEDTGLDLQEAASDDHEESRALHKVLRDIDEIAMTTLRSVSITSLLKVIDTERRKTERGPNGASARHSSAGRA
In words: EMSA. As to conditions: lesser effect than 2-acetamidobenzoate, poor solubility, 25 µL, Tris 20 mM pH 7.5 (at 25°C), KCl 50 mM, DTT 1 mM, probe 12 nM (0.303 pmol), BadM 72 nM (1.8 pmol), recombinant protein, label: 6-FAM (text and Methods: 3' end, legends: 5'), probe letters rebuilt from the primers and the genome.

For the sequence “GTGATGCGGCCTGTCGAGCATGCCGGTCGTCCTCCCTGCCCGGCGGCTCTGCCGGGTCGCGCTGCCGGCCATTTTCCGGCCCAGCGATTTAAATGTAATCTAGTATCGGAATGCGATAATTAATTTGATGCGGATCAAATTTGGCAAAGGCACAGCCGACACGGGCCGACGCCGGCTCGTAGTCGGGAGGCTCAGATATCGATCGCGATCTT (double strand) [badDEFGAB promoter / badCD intergenic probe]”, the binding result is “binds more weakly” (3-acetamidobenzoate) and “binds more weakly” (4-acetamidobenzoate).
